ChEMBL document CHEMBL4303122, “Identification of potential treatments for COVID-19 through artificial intelligence-enabled phenomic analysis of human cells infected with SARS-CoV-2” (2020)
Whole data set: some 1,600 compounds, median “Hit score” near 0.13, cut for the highest 2% near 0.46. Some of the results follow.

Tested on: SARS-CoV-2
Assay: Antiviral activity against SARS-CoV-2 (USA-WA1/2020 strain) measured by imaging in HRCE cells at MOI 0.4 after 96 hrs (reported as hit score from 0-1 for on-disease vs off-disease activity: scores >0.6 considered hits)
Type: functional, Homo sapiens

Row | SMILES | Hit score
1 | CCCCCCCCCCCC(=O)OCC(O)CO (stereo not drawn) [GLYCEROL MONOLAURATE] | 0.1728
2 | CC(C(=O)O)c1cccc(C(=O)c2ccccc2)c1 (stereo not drawn) [KETOPROFEN] | -0.03507
3 | CC(C)Cc1ccc(C(C)C(=O)OCc2ccccn2)cc1 (stereo not drawn) [IBUPROFEN PICONOL] | 0.1126
4 | CC[C@H]1CN2CC[C@H]1C[C@@H]2[C@@H](O)c1ccnc2ccc(OC)cc12 [HYDROQUINIDINE] | 0.1882
5 | CCOC(=O)c1ncn2c1CN(C)C(=O)c1cc(F)ccc1-2 [FLUMAZENIL] | 0.1603
6 | NCC(CC(=O)O)c1ccccc1 (stereo not drawn) [PHENIBUT] | 0.1202
7 | CCN(CC)CCOC(=O)C(Cc1cccc2ccccc12)CC1CCCO1 (stereo not drawn) [NAFRONYL] | 0.1229
8 | C[C@H](N)[C@H](O)c1cccc(O)c1 [METARAMINOL] | -0.08479
9 | CC1=C(CC(=O)O)c2cc(F)ccc2/C1=C\c1ccc(S(C)(=O)=O)cc1 [EXISULIND] | 0.1412
10 | O=C1CN(/N=C/c2ccc([N+](=O)[O-])o2)C(=O)N1 [NITROFURANTOIN] | 0.1622
11 | Cc1ccccc1OCC(O)CO (stereo not drawn) [MEPHENESIN] | 0.0981
12 | O=C(O)c1ccccc1Nc1cc(Cl)ccc1C(=O)O [LOBENZARIT] | 0.1685
13 | CCOC(=O)n1ccn(C)c1=S [CARBIMAZOLE] | 0.2511
14 | CC(C)OC(=O)CCC/C=C\C[C@@H]1[C@@H](/C=C/[C@@H](O)COc2cccc(C(F)(F)F)c2)[C@H](O)C[C@@H]1O [TRAVOPROST] | 0.0267
15 | O=C1CN(/N=C/c2ccc(-c3ccc([N+](=O)[O-])cc3)o2)C(=O)N1 [DANTROLENE] | 0.0794
16 | O=C(O)c1ccc2c(c1)nc(Nc1cccc(Cl)c1)c1ccncc12 [SILMITASERTIB] | 0.7608
17 | COC(=O)N[C@H](C(=O)N1CCC[C@H]1c1nc(-c2ccc3c(c2)O[C@@H](c2ccccc2)n2c-3cc3cc(-c4c[nH]c([C@@H]5CCCN5C(=O)[C@@H](NC(=O)OC)C(C)C)n4)ccc32)c[nH]1)C(C)C [ELBASVIR] | -0.03781
18 | CCNC(=O)CCC/C=C\C[C@@H]1[C@@H](/C=C/[C@@H](O)CCc2ccccc2)[C@H](O)C[C@@H]1O [BIMATOPROST] | 0.186
19 | COC(=O)C1=C(C)NC(C)=C(C(=O)OC2CCCN(Cc3ccccc3)C2)C1c1cccc([N+](=O)[O-])c1 (stereo not drawn) [BENIDIPINE] | 0.1919
20 | O=C(CCCCCCC(=O)Nc1ccccc1)NO [VORINOSTAT] | -0.06059
21 | CCCN[C@@H]1CCc2nc(N)sc2C1 [DEXPRAMIPEXOLE] | 0.07275
22 | CNC[C@H](O)[C@@H](O)[C@H](O)[C@H](O)CO.Cc1c(Nc2ncccc2C(=O)O)cccc1C(F)(F)F [FLUNIXIN MEGLUMINE] | 0.2448

Row | SMILES | Hit score
23 | CO/N=C(\C(=O)N[C@@H]1C(=O)N2C(C(=O)[O-])=C(C[n+]3cccc4c3CCC4)CS[C@H]12)c1csc(N)n1 [CEFPIROME] | 0.1204
24 | Oc1cc(O)cc(O)c1 [PHLOROGLUCINOL] | 0.06366
25 | CC#C[C@]1(O)CC[C@H]2[C@@H]3CCC4=CC(=O)CCC4=C3[C@@H](c3ccc(N(C)C)cc3)C[C@@]21C [MIFEPRISTONE] | 0.07581
26 | CC(=O)OCC(=O)[C@@]1(O)CC[C@H]2[C@@H]3CCC4=CC(=O)CC[C@]4(C)[C@H]3[C@@H](O)C[C@@]21C [HYDROCORTISONE ACETATE] | 0.1773
27 | CN1CC(O)C2=C/C(=N/NC(N)=O)C(=O)C=C21 (stereo not drawn) [CARBAZOCHROME] | 0.2804
28 | Nc1c2c(nc3ccccc13)CCCC2 [TACRINE] | -0.07444
29 | CCCCC(CC)COC(=O)C(C#N)=C(c1ccccc1)c1ccccc1 (stereo not drawn) [OCTOCRYLENE] | 0.1632
30 | COc1cc2/c(=N/c3ccc(Br)cc3F)nc[nH]c2cc1OCC1CCN(C)CC1 [VANDETANIB] | 0.2198
31 | C/C(=C(\CCOP(=O)(O)O)SC(=O)c1ccccc1)N(C=O)Cc1cnc(C)nc1N [BENFOTIAMINE] | 0.08383
32 | CC(C)C(=O)OCC(=O)[C@@]12O[C@H](C3CCCCC3)O[C@@H]1C[C@H]1[C@@H]3CCC4=CC(=O)C=C[C@]4(C)[C@H]3[C@@H](O)C[C@@]12C [CICLESONIDE] | 0.2519
33 | CCN(CC)C(=S)SSC(=S)N(CC)CC | 0.2116
34 | O=C(CCCN1CCN(c2ccccn2)CC1)c1ccc(F)cc1 [AZAPERONE] | 0.2437
35 | CCc1ccc(Cc2ccc3c(c2)[C@]2(OC3)O[C@H](CO)[C@@H](O)[C@H](O)[C@H]2O)cc1.O [TOFOGLIFLOZIN] | -0.02965
36 | CC1CC(OC(=O)c2ccccc2O)CC(C)(C)C1 (stereo not drawn) [HOMOSALATE] | 0.04745
37 | COC(=O)C1=C(C#N)NC(C)=C(C(=O)OC(C)C)C1c1cccc([N+](=O)[O-])c1 (stereo not drawn) [NILVADIPINE] | 0.06379
38 | COCCCN1CCC(NC(=O)c2cc(Cl)c(N)c3c2OCC3)CC1 [PRUCALOPRIDE] | 0.06391
39 | CC(C)CC(N(C)C)C1(c2ccc(Cl)cc2)CCC1 (stereo not drawn) [SIBUTRAMINE] | 0.2623
40 | N[C@@H](Cc1cc(I)c(Oc2ccc(O)c(I)c2)c(I)c1)C(=O)O [LIOTHYRONINE] | 0.01634
41 | CC[C@]1(O)C[C@@H]2CN(CCc3c([nH]c4ccccc34)[C@@](C(=O)OC)(c3cc4c(cc3OC)N(C)[C@H]3[C@@](O)(C(=O)OC)[C@H](OC(C)=O)[C@]5(CC)C=CCN6CC[C@]43[C@@H]65)C2)C1 [VINBLASTINE] | 0.2235
42 | C[C@H](/C=C/[C@H](C)C(C)(C)O)[C@H]1CC[C@H]2/C(=C/C=C3C[C@@H](O)C[C@H](O)C3)CCC[C@]12C [PARICALCITOL] | 0.5764
43 | Cc1ccc(=O)n(-c2ccccc2)c1 [PIRFENIDONE] | 0.263

3 records drawn at random from those above:
Row | SMILES | Hit score
40 | N[C@@H](Cc1cc(I)c(Oc2ccc(O)c(I)c2)c(I)c1)C(=O)O [LIOTHYRONINE] | 0.01634
17 | COC(=O)N[C@H](C(=O)N1CCC[C@H]1c1nc(-c2ccc3c(c2)O[C@@H](c2ccccc2)n2c-3cc3cc(-c4c[nH]c([C@@H]5CCCN5C(=O)[C@@H](NC(=O)OC)C(C)C)n4)ccc32)c[nH]1)C(C)C [ELBASVIR] | -0.03781
43 | Cc1ccc(=O)n(-c2ccccc2)c1 [PIRFENIDONE] | 0.263
